PubChem BioAssay AID1259254, NCATS – 2017
Here is one part, drawn at random, of about 59,000 reagents tested. About 1,550 of them (2.6%) were called active. 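G2 share is only a proxy for re-replication; each gene was hit by three separate siRNAs, and active genes were retested.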 Raw values vary from plate to plate and are shown uncorrected. The numbers tell different reagents against one gene apart. No sequences are given here. Not given: the amount of reagent.

- Test: 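Finding genes that stop cells copying their DNA twice in one cycle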 (primary screen)
- Cells: human HCT116 colorectal cancer cells
- Knock-down reagent: single siRNA against human genes
- Time to read-out: 3 days
- Measurement: 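Imaged Hoechst DNA stain sorts each cell into a cycle phase by DNA amount; per plate, G2 fraction set to 0% for non-targeting and 100% for GMNN siRNA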
- Reading the numbers: G2 robust z-score and G2 cells, % of GMNN control: higher = more G2 cells, more excess DNA replication; raw share of cells in G2: higher = larger share of cells with G2 DNA content
- Rule for the call: 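An siRNA counts as active if its G2 robust z-score lies at least 5 MADs above the screen median; here such calls match roughly 38% of GMNN control or more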

Gene	siRNA no.	G2 robust z-score	G2 cells, % of GMNN control	raw share of cells in G2 (%)	outcome
FLT3 (GeneID 2322)	1	0.707	7.94	8.23	inactive
FLT3 (GeneID 2322)	2	-1.07	-4.59	3.86	inactive
FLT3 (GeneID 2322)	3	-0.354	0.478	4.19	inactive
ZNF780B (GeneID 163131)	1	2.74	22.2	10.7	inactive
ZNF780B (GeneID 163131)	2	-0.656	-1.65	2.59	inactive
ZNF780B (GeneID 163131)	3	1.55	13.8	8.38	inactive
FYB2 (GeneID 199920)	1	0.665	7.64	6.34	inactive
FYB2 (GeneID 199920)	2	-0.292	0.914	3.27	inactive
FYB2 (GeneID 199920)	3	5.89	44.4	16.8	active
POLA2 (GeneID 23649)	1	-1.17	-5.23	2.45	inactive
POLA2 (GeneID 23649)	2	-1.07	-4.57	4.09	inactive
POLA2 (GeneID 23649)	3	-0.248	1.23	4.39	inactive
ZC3H13 (GeneID 23091)	1	-1.09	-4.72	3.14	inactive
ZC3H13 (GeneID 23091)	2	-0.251	1.2	4.63	inactive
ZC3H13 (GeneID 23091)	3	-0.128	2.07	3.95	inactive
TEPSIN (GeneID 146705)	1	-0.196	1.59	4.36	inactive
TEPSIN (GeneID 146705)	2	-0.296	0.887	3.19	inactive
TEPSIN (GeneID 146705)	3	-0.641	-1.55	2.53	inactive
BIK (GeneID 638)	1	-1.31	-6.25	2.59	inactive
BIK (GeneID 638)	2	0.804	8.62	8.14	inactive
BIK (GeneID 638)	3	-0.786	-2.57	3.04	inactive
PLD3 (GeneID 23646)	1	0.359	5.49	5.79	inactive
PLD3 (GeneID 23646)	2	2.49	20.5	11	inactive
PLD3 (GeneID 23646)	3	-0.692	-1.9	5.3	inactive
CHD5 (GeneID 26038)	1	-0.267	1.09	4.55	inactive
CHD5 (GeneID 26038)	2	5	38.1	16.5	active
CHD5 (GeneID 26038)	3	1.77	15.4	13.2	inactive
ITGB1BP2 (GeneID 26548)	1	1.83	15.9	10.4	inactive
ITGB1BP2 (GeneID 26548)	2	-0.211	1.48	4.58	inactive
ITGB1BP2 (GeneID 26548)	3	0.202	4.39	4.83	inactive
ERCC3 (GeneID 2071)	1	-0.161	1.84	5.96	inactive
ERCC3 (GeneID 2071)	2	-1.2	-5.49	1.7	inactive
ERCC3 (GeneID 2071)	3	0.776	8.43	8.3	inactive
UBXN6 (GeneID 80700)	1	0.375	5.61	6.77	inactive
UBXN6 (GeneID 80700)	2	-0.429	-0.0488	4.28	inactive
UBXN6 (GeneID 80700)	3	1.57	14	6.21	inactive
ARHGDIA (GeneID 396)	1	-0.932	-3.59	3.5	inactive
ARHGDIA (GeneID 396)	2	5.37	40.7	19.2	active
ARHGDIA (GeneID 396)	3	-0.392	0.21	5.15	inactive
IL17F (GeneID 112744)	1	0.222	4.53	3.14	inactive
IL17F (GeneID 112744)	2	-0.0602	2.54	5.11	inactive
IL17F (GeneID 112744)	3	0.442	6.08	5.14	inactive
MMAA (GeneID 166785)	1	-0.602	-1.27	5.35	inactive
MMAA (GeneID 166785)	2	0.756	8.28	7.73	inactive
MMAA (GeneID 166785)	3	-1.21	-5.54	2.37	inactive
ISL1 (GeneID 3670)	1	-1.47	-7.34	2.89	inactive
ISL1 (GeneID 3670)	2	4.06	31.5	15.8	inactive
ISL1 (GeneID 3670)	3	-0.748	-2.29	4.21	inactive

Already shown: entries from further up.
Gene	siRNA no.	G2 robust z-score	G2 cells, % of GMNN control	raw share of cells in G2 (%)	outcome
FYB2 (GeneID 199920)	3	5.89	44.4	16.8	active
POLA2 (GeneID 23649)	1	-1.17	-5.23	2.45	inactive
POLA2 (GeneID 23649)	2	-1.07	-4.57	4.09	inactive
POLA2 (GeneID 23649)	3	-0.248	1.23	4.39	inactive
